Most values lie at the floor of the assay. Slopes are relative: functional sequences can read slightly below zero.
Tested on: Saccharomyces cerevisiae PS128 hsf1 delta, HSF1(1-493) fusion
Assay: growth estimate (transactivation domain function in HSF1 fusion, heat-shock survival) (a.u. (slope of normalised read count over time)); higher = stronger growth at 37°C, i.e. more transactivation activity
Conditions: library: random library

Substance	growth estimate
PGPSLEVLAQ	< -0.25
PGPWVR	< -0.25
PGQE	< -0.25
PGQYFIRGVV	< -0.25
PGRATPLVSSPHKGVPDIRF	< -0.25
PGREIQNREGGPSFILLRCH	< -0.25
PGRELGVL	< -0.25
PGRERSNLRML	< -0.25
PGRQHWHLASCADYRGLRPP	< -0.25
PGRVETEISSRQIRVWSDSR	< -0.25
PGSARRLDQPISVMPCGFST	< -0.25
PGSYRFYFVGDSDLKLTRGE	< -0.25
PGTMSAGDF	< -0.25
PGVRKDARQDSTRAIHRPAG	< -0.25
PGWTGTRGWRVS	< -0.25
PGWVVQRGFMDRLLAMPGRD	< -0.25
PGYC	< -0.25
PGYLTSNSIVGVPFT	< -0.25
PHEECFLLAVGIMLCPIRLC	< -0.25
PHFSHLGEQLHWMLGKLWAA	< -0.25
PHFVIMGHRARGSSQYKAQG	< -0.25
PHHPDCGACLTDWREIPCPE	< -0.25
PHLSNQRLKGGLVPRSGSLK	< -0.25
PHNLVRRQ	< -0.25
PHNVSQEPGCLQS	< -0.25

Substance	growth estimate
PHRVLSTSCT	< -0.25
PHVVRTDGSGSDLHTFPAS	< -0.25
PHWGRCDIAATMGSHSGHHE	< -0.25
PIALNPSTPTRVEGVQLQSG	< -0.25
PIDARSMLRR	< -0.25
PIDDATRPWKAARESSAAAP	< -0.25
PIFGIDSIGCSA	< -0.25
PIGRSGLRALPPRPRRSRQH	< -0.25
PIGV	< -0.25
PIGVASTCQA	< -0.25
PIHRAAEIVTVSGLRASKNA	< -0.25
PIIAGTRSGSSRRRPRQNAA	< -0.25
PIKFDEVDKFLIYRSQGSRL	< -0.25
PILSENLGDGQVDRYFSSAN	< -0.25
PILSPKVELAGVLHIVVGVT	< -0.25
PIMVSAGSLTATSERDRIT	< -0.25
PINDQEYNLSQLDDFAHKPI	< -0.25
PIPDQNSVWCWGPLKSNSRS	< -0.25
PIQAVGTGVNRKVLFDSPGE	< -0.25
PIR	< -0.25
PIRGTERGGCEVRAIYPRPT	< -0.25
PIRTGCNPVHTSSCWVGDAV	< -0.25
PIRVCLV	< -0.25
PIS	< -0.25
PISPPCRVW	< -0.25

In a second layout: entries from further up
PGTMSAGDF
  growth estimate = < -0.25
PGVRKDARQDSTRAIHRPAG
  growth estimate = < -0.25
PGWTGTRGWRVS
  growth estimate = < -0.25
PGWVVQRGFMDRLLAMPGRD
  growth estimate = < -0.25

Four entries drawn at random from the list so far, as already listed:
Substance	growth estimate
PIMVSAGSLTATSERDRIT	< -0.25
PIS	< -0.25
PIIAGTRSGSSRRRPRQNAA	< -0.25
PIRTGCNPVHTSSCWVGDAV	< -0.25

Additional results follow:

Substance	growth estimate
PISVHVLRGHGVTRELSGGC	< -0.25
PIVRRAVYKRIMTWPSGRVG	< -0.25
PIVVRTLPRAMIEYLRCVED	< -0.25
PIWGAPAWRGD	< -0.25
PKECRMTGHI	< -0.25
PKEWSAKVRDSVAALCRGLQ	< -0.25
PKGLTLPLGDLVGSGQILHP	< -0.253
PKGWPLRPPSVALVCYSQN	< -0.25
PKHAVTRCIEYC	-0.243
PKHMK	< -0.25
PKHVCVRL	< -0.25
PKILLT	< -0.25
PKISYVRGGLRQHDAEHLLR	< -0.25
PKLQERYDFGYEVSMEGAS	< -0.25
PKLRFTRLMGLSL	< -0.25
PKLYTAIVSNTRKWGQVRYL	< -0.25
PKMIKAV	-0.14
PKQGVQSENSLDVRESHIAR	< -0.25
PKQPERLQSDEYLSKPGMSG	< -0.25
PKRRTMPGLNCAGQCDMAER	< -0.25
PKRTAPPLTVSLIERFLQPP	< -0.25
PKSRGPYNVCGVRTETQLTR	< -0.25
PKSRLNIES	< -0.25
PKSRYQCAQDE	< -0.25
PKSSDHIQPETHDCSGNSPV	< -0.25

Substance	growth estimate
PKTGNYHVDKPGTEPMVP	< -0.25
PLAKN	< -0.25
PLCGITRDTCKF	< -0.25
PLCSEY	-0.0071
PLDGDSQIELYDT	< -0.25
PLEELAWTPPSSTRASLTFM	< -0.25
PLEFPHRTGTGSTKTRRLRP	< -0.25
PLELSL	< -0.25
PLFQKRRKVVRVKTSDVADA	< -0.25
PLG	< -0.25
PLGDKLPVSGFLVTTEEALV	< -0.25
PLGER	< -0.25
PLGLKFR	< -0.25
PLGQTSLIPNNGKSNCSECL	< -0.25
PLGTFTPFRGFAGQSRNRRR	< -0.25
PLHAARLCKRAGEGHARPRV	-0.246
PLHCSALATA	< -0.25
PLI	< -0.25
PLIQSKLILEKSM	-0.243
PLISARRMDCRFCNQSANP	< -0.25
PLKWRRVSAAVRFHIESPVN	< -0.25
PLLGKKTRTTTTYQDRYGRG	< -0.25
PLLIRDVQDHFKSTPKPLNL	< -0.25
PLLLPHVMVLIDGGKMSTLH	< -0.25
PLLLWQQQCRITVPSTTEMG	< -0.25

Substance	growth estimate
PLLRQKRRYELGSRQRECMG	< -0.25
PLLRSQ	< -0.25
PLMLPNRRSCRE	< -0.25
PLNFWLLCPVGKQVGQSTGR	< -0.25
PLPVCCQHYGDGSYRDGC	< -0.25
PLQRNVSNDVMCP	< -0.25
PLRHHCVVTHPPSDPFRHNV	< -0.25
PLRNVTMLGLLS	< -0.25
PLSEVQADTC	< -0.25
PLSRSSNNAIG	-0.246
PLSSVEVRYLHQLKTLTIE	< -0.25
PLSTPSAAAVRRLNGVRVKI	< -0.25
PLT	< -0.25
PLTCCLVGMYCTFPEFYSAP	< -0.25
PLTLSSSRAWGALRAKHATS	< -0.25
PLTSCAVIKNSTESAERART	< -0.25
PLVLNLK	< -0.25
PLVYYQSGPNEILSAFIEP	-0.206
PLYINQGDCLIDNRTCSERS	< -0.25
PMDRIREKPFHS	< -0.25
PMERSSRFLRRSEDAWLV	< -0.25
PMIRSPRRCIILREASMSVR	< -0.25
PMISRARSHRQNILSDLNKS	-0.227
PMLSLSGVYCTS	< -0.25
PMNLNMVDCRMRPGSPGVCK	< -0.25

Substance	growth estimate
PMPFGSEILGFAR	< -0.25
PMPG	< -0.25
PMR	-0.174
PMRPATQWVWEMVPALDQAL	< -0.25
PMRPVYTEGTFVG	< -0.25
PMRRRRTAGPTLVGGCGSLG	< -0.25
PMSAR	-0.231
PMVGGLSCCVAGRVELMSSD	0.0112
PMVGTSTSIRPRCSLSRGDP	< -0.25
PMVVDGLVARKTKTR	< -0.25
PNF	< -0.25
PNFGEGPLESCKSKEKIMGS	< -0.25
PNGARRIVL	< -0.25
PNGGEGVKHEVSVD	< -0.25
PNGN	< -0.25
PNGV	< -0.25
PNKGDPHS	< -0.25
PNLICFSCWLGNLRNAGQRS	< -0.25
PNNACCGISEAGLSKS	< -0.25
PNPFMVIVQLKVGITSCIRE	< -0.25
PNPGTGAAWSPGGHWMRAKV	< -0.25
PNPLHGRARATGSLMGNTDR	< -0.25
PNQVIESISALVNTKIKWSI	< -0.25
PNRPKAPYLEGDHAPIDPLG	< -0.25
PNRVNVGDQNKSTDSRI	< -0.25

Substance	growth estimate
PNSLRHKEAPVSVTPTSHLG	< -0.25
PNTLRARGYGFV	< -0.25
PPDAKGVA	< -0.25
PPDSRISTCRDRRMKDKAHT	< -0.25
PPF	< -0.25
PPFCGYVIQVGSVAPPYPLH	< -0.25
PPFW	< -0.25
PPGLAES	< -0.25
PPGSLTPRT	< -0.25
PPKSHQRIKVRVPSP	< -0.25
PPLCNNRG	< -0.25
PPLGKYCLAAHLCWSRRQST	< -0.25
PPNPSATKGSGNGILKGVNR	< -0.25
PPPACWNSQLSHMNQYKTSL	-0.231
PPPDLQIYFYSTSRLHNL	< -0.25
PPPFCTGREYRPFYVVSCNP	< -0.25
PPPKIRYQMQERSA	< -0.25
PPPKKD	< -0.25
PPQDMGAPWPRGASSYWAGV	< -0.25
PPRLSHWRVNLLDLSAD	< -0.25
PPSPERL	< -0.25
PPTGEAAQC	< -0.25
PPTGHSRGNSWHFR	< -0.25
PPVPTLLYTAR	< -0.25
PQALP	< -0.25

Substance	growth estimate
PQALTF	< -0.25
PQASSMMLQLVLYRGAMDRR	< -0.25
PQCGLTLSF	< -0.25
PQDLLPNKGEKMILHY	< -0.25
PQE	< -0.25
PQG	< -0.25
PQGELEVGVYGFASL	< -0.25
PQGMHHFQGANRPPRVEVLA	< -0.25
PQIASSCHSLRRGENRPLKN	< -0.25
PQKDTG	< -0.25
PQLGLAT	< -0.25
PQP	< -0.25
PQPICMDQHNSREKSWVILA	< -0.25
PQQRGTVRKSARASVDGSKE	< -0.25
PQSI	< -0.25
PQSSTVFLGEPRGDRHGRQN	< -0.25
PQVIGWTFVG	< -0.25
PQVLHGYFVVCRCALRSMFR	< -0.25
PQVVRGGVSAPVLSETWKTS	< -0.25
PQWPGEQFRGEHG	< -0.25
PRAGDMTGVVEVV	< -0.25
PRAQIKSEGGMLRLPG	< -0.25
PRASHLWLVGRPPGLRPIGL	< -0.25
PRASICYAISTIRGNLKKSL	< -0.25

— the supplement of paper PMC5949888
